# Screening data, single-dose tests

Chains of the proteins cited; added tags and fusions are not shown.
UniProt P9WFT3, whole entry: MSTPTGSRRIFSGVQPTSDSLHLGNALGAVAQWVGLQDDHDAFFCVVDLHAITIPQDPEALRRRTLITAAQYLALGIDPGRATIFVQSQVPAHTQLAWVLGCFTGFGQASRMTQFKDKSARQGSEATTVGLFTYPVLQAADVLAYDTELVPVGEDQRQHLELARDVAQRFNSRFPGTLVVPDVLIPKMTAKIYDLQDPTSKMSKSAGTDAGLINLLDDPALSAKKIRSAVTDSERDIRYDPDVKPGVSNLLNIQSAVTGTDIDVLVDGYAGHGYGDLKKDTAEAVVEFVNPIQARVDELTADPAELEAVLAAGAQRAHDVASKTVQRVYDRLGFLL
UniProt P9WNZ1, whole entry: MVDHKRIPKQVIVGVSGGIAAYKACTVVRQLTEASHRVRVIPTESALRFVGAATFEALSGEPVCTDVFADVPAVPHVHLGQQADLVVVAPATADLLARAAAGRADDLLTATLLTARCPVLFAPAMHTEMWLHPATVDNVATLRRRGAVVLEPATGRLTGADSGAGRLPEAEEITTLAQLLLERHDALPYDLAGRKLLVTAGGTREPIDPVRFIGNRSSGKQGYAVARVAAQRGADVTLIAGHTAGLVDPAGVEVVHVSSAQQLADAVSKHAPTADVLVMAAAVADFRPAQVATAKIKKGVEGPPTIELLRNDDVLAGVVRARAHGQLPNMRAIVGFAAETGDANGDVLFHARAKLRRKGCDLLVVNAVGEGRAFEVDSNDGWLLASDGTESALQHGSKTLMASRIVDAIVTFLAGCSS

From ChEMBL document CHEMBL3988442, “University of Dundee, Small-Polar-MMV Screening Library” (2021).

A: 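Enzyme assay of tryptophanyl-tRNA synthetase; the read-out is not stated. Target: Tryptophan-tRNA ligase, Mycobacterium tuberculosis (UniProt P9WFT3). Concentration: 10 µM. Direction is not recorded; retested compounds ran higher, which suggests that high means inhibition. About 65,000 compounds were tested under these conditions; 0.098% (about 64) showed 50% or more at least once.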
B: 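Enzyme assay of CoaBC with a phosphate dye (Biomol Green) read at 650 nm. Target: Coenzyme A biosynthesis protein CoaBC, Mycobacterium tuberculosis (UniProt P9WNZ1). Concentration: 30 µM. Higher reads as stronger inhibition, judged from the few compounds that gave an IC50. Most strong results did not repeat in a second test. About 67,000 compounds were tested under these conditions; 0.06% (about 40) showed 50% or more at least once.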

Results are given as percent effect. The record does not define 0% and 100%; most values in the screen are far below 50% and negative numbers occur (in some assays of this library far below -100). This is an unselected part of the compounds tested. Two or more numbers in one place are separate tests of the same structure; such repeats can differ widely. A dash means the value is not listed here; it may have been measured.

structure,A,B
FC(F)(F)c1ccc2nc([C@H]3CCN(C4CCC4)C3)[nH]c2c1,-4.292,4.289
CCN1CCN2CCCN(S(=O)(=O)c3ccc(C)cc3C)C2C1=O (stereo not shown),-0.3734,1.966
CCc1nc2n(n1)CC(NCc1cnn(Cc3ccccc3)c1)CC2 (stereo not shown),0.3975,-12.87
CCOC(=O)N1CCC(OC)c2ccccc2N(C)C(=O)C1 (stereo not shown),-,0.2421
CC(C)Nc1n[nH]c2nc(C3CCN(C(=O)c4ccccn4)C3)ccc12 (stereo not shown),4.863,1.456
CCC(c1ccc(F)cc1F)N1CCN(CCO)CC1 (stereo not shown),-0.9332,26.24 and 8.466
Cc1cnc(C(=O)N2CCC3(CC2)C(=O)NCCN3CC(C)C)cn1,0.3607,1.833
C[C@@H]1CN(C(=O)C2(Cn3cccn3)CC2)CC[C@@]1(O)C1CC1,5.905,7.443
COCCn1ccc2cc(NC(=O)COC)ccc21,-3.298,2.737
CC(C)Nc1oc(-c2ccc(S(=O)(=O)N(C)C)o2)nc1C#N,1.202,-2.663
CC(C(=O)NCCN1CCCCC1)n1cncn1 (stereo not shown),-2.77,-0.6519
CN(C)c1ccc(C(=O)Nc2ccn(CCc3ccncc3)n2)cn1,2.041,4.403
CSc1ncc(C(=O)N2C[C@H]3CC[C@@H]2CN(c2ncccn2)C3)cn1,1.087,2.051
CNC(=O)c1cc2c(nc1NCC(C)C)CCN(c1ncccn1)CC2,-3.483,-0.4673
NC(=O)C1CCN(CC(=O)N2CCCC2c2ccsc2)CC1 (stereo not shown),-0.5236,-0.2141
O=C1CCC(c2ccccc2)(c2ccccc2)CN1CCO,-3.44,3.661
CC(C(=O)Nc1ccccc1Sc1ccccc1)S(C)(=O)=O (stereo not shown),2.151,-15.73
O=C1CSC(C(F)(F)F)c2c(O)nn(C3CCCCC3)c2N1 (stereo not shown),2.386,3.038
CNC(=O)CCN1CCN(C(C)c2ccc(Cl)cc2)CC1 (stereo not shown),-3.054,-0.7335
CC(=O)NCCNC(=O)Nc1ccc(C)cc1OCc1ccccc1,0.5236,3.64
CCc1nc2n(n1)CC(NCc1nc3ccccc3o1)CC2 (stereo not shown),-1.891,1.595
Cc1nn(C)c2nc(N3CCC(C(O)c4nccn4C)CC3)sc12 (stereo not shown),-4.285,1.799
Cc1cnc(CC2COCCN(Cc3nccn3C)C2)cn1 (stereo not shown),-,1.699
CCCN(CC)Cn1ncc2cn(-c3ccccc3)nc2c1=O,-1.83,2.174
CN1CCCN(C(=O)c2cnsn2)c2cc(Cl)ccc21,1.202,1.695
COc1ccc2[nH]c(=O)c(CN(C)CCN3CCCC3)cc2c1,0.8683,8.571
Cc1sc(-n2cnnn2)c(C(=O)NC(C)C)c1C,3.376,-1.337
NC(=O)NC(=O)CCN1C(=O)CC(Cc2ccc(F)cc2)C1=O (stereo not shown),-2.271,-2.2
O=C(c1cc2cc(F)ccc2[nH]1)N1CCC(Nc2ccc(F)cc2)CC1,-10.88,1.746
CO[C@@H]1CCN(c2nnc(C)s2)C[C@@H]1Cc1ccccc1,-5.297,3.548
CCCN1CCCN(C(=O)C(CC)N2CCCC2=O)CC1 (stereo not shown),3.008,0.5894
CC(C)(C)c1oc(C(N)=O)cc1CN1CCOC(C(F)(F)F)C1 (stereo not shown),4.009,1.827
Cc1ccc2cc(C(=O)N3CCC(Nc4cccnn4)CC3)[nH]c2c1,23.87,8.964
Cc1nccn1CC1CCN(C(=O)c2cccs2)CC1,0.8497,1.272
COCc1nc2ncc3c(=O)n(-c4ccccc4OC)ccc3n2n1,5.032,9.764
COCC[C@]1(O)CCN(Cc2nc(C)cs2)C[C@H]1C,-0.5833,5.275
Cc1cccc(OCC(O)CN2CCC(c3ccn[nH]3)CC2)c1 (stereo not shown),-6.991,4.724
CN(Cc1ccccc1F)C(=O)Cn1cc(NC(=O)C(C)(C)C)cn1,11.4,-4.28
CS(=O)(=O)NCCC(=O)NC1(c2ccc(F)cc2)CCCC1,-0.1698,0
CCn1ncc(CN(C)C(=O)c2cc(C(F)(F)F)n(C)n2)c1C,-1.492,3.165
OC1CCN(C2CCN(Cc3cccc(Cn4cccn4)c3)CC2)CC1,-0.3623,4.946
Cc1nnc(N2CC[C@H]3C[C@H](C(=O)N4CCOCC4)O[C@H]3C2)s1,-2.528,6.17
Cc1nn(CCO)cc1CN1CCCC1c1nc2c(C)cccc2[nH]1 (stereo not shown),0.3749,6.725
CN(Cc1ccc2nsnc2c1)CC1(O)CCNC1 (stereo not shown),-0.892,-24.03
Cc1cccc(N2CCC(N3CCC4(CCCNC4=O)C3)CC2)c1C (stereo not shown),1.288,-6.925
Clc1ccc2cccnc2c1CNC1CCc2ncnn2C1 (stereo not shown),1.497,2.39
CC(C)c1nccn1C1CCCN(C(=O)c2nccnc2N)C1 (stereo not shown),5.362,1.434
CCn1ccnc1CN1CCN(CCOc2ccccc2OC)CC1,-0.1572,6.117
Cc1cc(=O)[nH]c(-n2nc(C)c(CCC(=O)Nc3nc(C)cs3)c2C)n1,3.815,3.49
CCCc1nnc2sc(CC3CN(Cc4ccccc4)CCO3)nn12 (stereo not shown),2.472,4.087
O=C(CN1CCCS1(=O)=O)Nc1cccc(COC2CCCCC2)c1,-4.823,4.418
O=C(NCCCO)c1cc(-c2ccc3c(c2)CCO3)n[nH]1,-1.331,1.768
Cn1cccc1C(=O)N1CC[C@@H]2[C@@H]1CC(=O)N2CC1CCOCC1,-8.104,-4.017
CN(C)C(CNC(=O)NCCOc1ccccc1)c1ccco1 (stereo not shown),4.641,-4.835
O=C(c1cnn(-c2ccccc2)n1)N1CCCC(n2cccn2)C1 (stereo not shown),-2.324,3.133
CCn1cc(CN2CCN(CC(O)c3ccc(C)cc3C)CC2)cn1 (stereo not shown),-7.529,-1.36
Cc1ccc(F)c(S(=O)(=O)NCc2cccc(C(=O)N3CCCC3)c2)c1,21.64,-7.239
COc1ccc(CN2CCc3nc(C4CCCCN4C)ncc3C2)cc1 (stereo not shown),-0.5286,6.995
CCc1ocnc1C(=O)N1CCC2(CC1)OCC(C)O2 (stereo not shown),-4.85,3.205
Cc1nsc(N2CCCN(C(=O)NCc3cc(C)on3)CC2)n1,-0.7101,2.792
CN(CC(=O)N1CCC(Oc2ccccc2)CC1)c1cnccn1,-2.235,4.722
Cc1noc(CCCC(=O)N2CCCC2c2ccsc2)n1 (stereo not shown),-2.865,0.2625
O=C(c1cnccn1)N1CCCC2(CCN(c3ccccn3)C2)C1 (stereo not shown),1.759,7.431
CC(C)(C)c1cnc(CNCC2CCCN2c2cccnn2)o1 (stereo not shown),-4.31,0.8485
Cc1cnn(CC2CN(c3ncnc4[nH]ccc34)CCO2)c1 (stereo not shown),-5.24,2.926
CC(Cn1cccn1)NC(=O)N1CCN(Cc2ccncc2)CC1 (stereo not shown),-8.333,-4.307
CN1C(=O)CCc2cc(NS(=O)(=O)Cc3cccc(F)c3)ccc21,-2.786,3.571
Cc1nn(C)c2ncnc(N(C)CC3CCN(CC(C)C)C3)c12 (stereo not shown),0.3303,1.739
Cc1nnc(NC(=O)NCc2ccc(OC3CCCC3)nc2)s1,5.221,4.779

The first 4 entries again:

- FC(F)(F)c1ccc2nc([C@H]3CCN(C4CCC4)C3)[nH]c2c1 : A: -4.292%; B: 4.289%
- CCN1CCN2CCCN(S(=O)(=O)c3ccc(C)cc3C)C2C1=O (stereo not shown) : A: -0.3734%; B: 1.966%
- CCc1nc2n(n1)CC(NCc1cnn(Cc3ccccc3)c1)CC2 (stereo not shown) : A: 0.3975%; B: -12.87%
- CCOC(=O)N1CCC(OC)c2ccccc2N(C)C(=O)C1 (stereo not shown) : B: 0.2421%